Assay [1] concerns the target T1, PDCD5 of the in vitro binding assay (UniProt O14737).
T1 sequence: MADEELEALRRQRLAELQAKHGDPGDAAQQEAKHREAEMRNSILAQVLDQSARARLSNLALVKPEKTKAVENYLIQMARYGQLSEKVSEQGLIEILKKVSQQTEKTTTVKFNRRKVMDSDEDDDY
The assay can be described thus: in vitro binding assay; Supplementary Fig. 10c; format not told in the text shown.

Protein sequences, listed by entry. Tags and fused reporters are not part of them.
UniProt P84022: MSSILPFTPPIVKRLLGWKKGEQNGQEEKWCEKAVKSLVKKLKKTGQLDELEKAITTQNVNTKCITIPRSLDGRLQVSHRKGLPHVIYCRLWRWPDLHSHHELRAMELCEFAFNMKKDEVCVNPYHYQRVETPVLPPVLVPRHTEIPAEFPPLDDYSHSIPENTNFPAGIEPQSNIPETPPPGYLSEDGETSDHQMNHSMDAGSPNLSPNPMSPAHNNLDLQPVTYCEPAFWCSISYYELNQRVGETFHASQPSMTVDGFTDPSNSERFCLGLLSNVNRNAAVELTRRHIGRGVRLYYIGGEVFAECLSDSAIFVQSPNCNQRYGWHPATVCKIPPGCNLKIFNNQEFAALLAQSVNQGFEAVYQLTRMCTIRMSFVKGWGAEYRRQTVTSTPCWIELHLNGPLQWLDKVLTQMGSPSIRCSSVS
UniProt P35222: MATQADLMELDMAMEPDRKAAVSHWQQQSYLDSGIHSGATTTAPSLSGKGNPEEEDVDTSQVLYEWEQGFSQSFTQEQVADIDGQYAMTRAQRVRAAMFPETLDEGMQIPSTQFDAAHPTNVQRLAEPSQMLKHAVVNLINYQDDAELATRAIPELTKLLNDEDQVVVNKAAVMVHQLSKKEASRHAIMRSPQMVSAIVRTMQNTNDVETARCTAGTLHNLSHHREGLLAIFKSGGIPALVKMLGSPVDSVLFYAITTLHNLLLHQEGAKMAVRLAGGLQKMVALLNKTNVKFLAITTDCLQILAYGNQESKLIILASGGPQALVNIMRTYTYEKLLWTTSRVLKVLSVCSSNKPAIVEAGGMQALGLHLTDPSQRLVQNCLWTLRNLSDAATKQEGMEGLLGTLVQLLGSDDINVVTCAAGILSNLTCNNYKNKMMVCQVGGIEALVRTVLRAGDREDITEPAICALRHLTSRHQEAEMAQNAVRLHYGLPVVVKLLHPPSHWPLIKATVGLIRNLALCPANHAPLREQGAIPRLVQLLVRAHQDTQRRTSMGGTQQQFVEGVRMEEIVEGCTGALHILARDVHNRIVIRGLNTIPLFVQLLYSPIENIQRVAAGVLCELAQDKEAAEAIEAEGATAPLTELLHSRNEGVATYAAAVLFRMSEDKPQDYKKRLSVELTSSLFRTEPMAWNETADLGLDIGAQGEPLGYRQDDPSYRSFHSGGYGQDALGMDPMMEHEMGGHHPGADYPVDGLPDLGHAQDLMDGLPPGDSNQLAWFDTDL
UniProt Q02248: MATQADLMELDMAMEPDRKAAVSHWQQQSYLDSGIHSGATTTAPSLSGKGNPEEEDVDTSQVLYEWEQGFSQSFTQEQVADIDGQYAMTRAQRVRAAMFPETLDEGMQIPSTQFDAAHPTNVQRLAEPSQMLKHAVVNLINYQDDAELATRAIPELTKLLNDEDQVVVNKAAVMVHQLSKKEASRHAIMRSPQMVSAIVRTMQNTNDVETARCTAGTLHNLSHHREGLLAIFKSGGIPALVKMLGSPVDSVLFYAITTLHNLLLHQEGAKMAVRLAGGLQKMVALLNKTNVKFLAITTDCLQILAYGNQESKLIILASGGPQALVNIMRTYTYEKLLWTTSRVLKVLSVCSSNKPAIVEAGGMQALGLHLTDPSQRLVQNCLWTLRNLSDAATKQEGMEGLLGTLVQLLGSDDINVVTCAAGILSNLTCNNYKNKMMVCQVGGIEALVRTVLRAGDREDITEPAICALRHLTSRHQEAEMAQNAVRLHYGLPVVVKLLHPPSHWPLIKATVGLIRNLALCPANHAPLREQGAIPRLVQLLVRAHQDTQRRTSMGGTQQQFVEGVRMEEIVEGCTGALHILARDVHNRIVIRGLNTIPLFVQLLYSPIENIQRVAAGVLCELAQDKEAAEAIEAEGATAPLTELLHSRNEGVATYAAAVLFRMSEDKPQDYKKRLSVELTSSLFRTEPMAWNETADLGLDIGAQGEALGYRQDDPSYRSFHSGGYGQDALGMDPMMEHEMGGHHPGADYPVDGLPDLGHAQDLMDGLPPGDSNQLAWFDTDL

The target in assay [2] is T2, programmed cell death 5 (PDCD5), endogenous in C22 mouse club cells (mouse (endogenous in C22)) (UniProt P56812).
T2 sequence: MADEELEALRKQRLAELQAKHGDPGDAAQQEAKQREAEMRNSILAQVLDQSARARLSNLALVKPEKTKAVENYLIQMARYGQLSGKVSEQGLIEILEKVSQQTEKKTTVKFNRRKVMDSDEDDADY
Nature of the assay: co-IP; endogenous proteins, nuclear extracts of C22 cells, with or without TGF-β1; protein A/G agarose beads; immunoblot. (In general: A western blot detects proteins with antibodies after separation by electrophoresis.)

No constants are given. Whether binding was seen depends on the method and setting. For part of these data: In cells and extracts the contact can be indirect. Some entries that bind do so weakly or less than the wild type.

Regarding “Smad3 of the in vitro binding assay (from UniProt P84022 1-425)”, the binding result in assay [1] is recorded as “no binding”.

“β-catenin of the in vitro binding assay (from UniProt P35222 1-781)”: the binding entry in assay [1] is recorded as “binds”.

As for “β-catenin, endogenous in mouse club cells (from UniProt Q02248 1-781)”, the binding entry in assay [2] is on record as “binds”.

(Values after article PMC8134485.)
